The whole screen tested about 330,000 compounds, of which about 100 (0.03%) were called active. The shares of active, inactive and inconclusive entries below differ from those in the screen. Calls come from the whole dose curve; as a rule, active = well fitted inhibition curve with a large enough effect; inconclusive = small, poorly fitted or top-dose-only effect; inactive = flat fitted curve, though single readings scatter. Where the call is inconclusive, the potency comes from a doubtful curve fit.
System: Chaperonin Mm-Cpn (Methanococcus maripaludis)
Test: Inhibitors of TCP-1 ring complex (TRiC) of Methanococcus maripaludis (MmCpn): qHTS; note: nearly all actives have a fitted effect of over 80% in size;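 for potency: enzyme at 25 nM with ATP substrate at 10 µM during the reaction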
Conditions: purified Mm-Cpn ATPase, ADP Transcreener TR-FRET; series mostly up to 76.9 µM
Description: The eukaryotic chaperonin TRiC (for TCP-1 ring complex) is an essential and conserved chaperone required for the folding and activation of 10-15% of the proteins encoded by the human genome. […] The TRiC complex consist of two stacked 7-9 membered rings, each containing a central cavity. Substrates are folded within the cavity in an ATP-dependent manner. TRiC is a complex of eight different, essential proteins. As each of the genes encoding the eight subunits is essential for cell viability and no protocol has been developed to over-express this enzyme to high levels. That is why several groups studying the TRiC chaperonin have turned to the archaeal homolog of TRiC, Methanococcus maripaludis (Mm-CPN), and have used this enzyme as a model system for the study of the type II chaperonin family. Small molecule inhibitors of the Mm-CPN enzyme would be extremely useful to study the mechanism of chaperonin activity. Importantly, TRiC and Mm-CPN both require ATP hydrolysis for function. Furthermore, the ATP binding sites are highly conserved among these type II chaperonins. This provides us with an easy, well tested and straightforward assay to identify inhibitors of chaperonin activity. The Mm-CPN assay was developed in 1536-well plate format using the HTRF Transcreener ADP assay kit (Cisbio, Bedford, MA). This assay applied the time resolved fluorescence resonance energy transfer (TR-FRET) principle. ATP in the presence of Mm-CPN is converted to ADP + Pi. An antibody labeled with Eu3+-Cryptate specific and bound to ADP labeled with […] (d2) competes with the unlabeled ADP generated by Mm-CPN. The resulting TR-FRET signal is inversely proportional to the concentration of ADP in the sample. In this assay a reduction in TR-FRET signal is observed with ATP turnover. NIH Chemical Genomics Center [NCGC] NIH Molecular Libraries Probe Centers Network [MLPCN] MLPCN Grant: DA030554-01A1 Assay Submitter (PI): Judith Frydman, Stanford University
Purified Mm-CPN was supplied by the laboratory of Dr. Judith Frydman. Protein samples were stored at -80C as single use aliquots. Protein was thawed in ambient temperature water bath and placed on ice once thawed. Buffer was prepared fresh day of screen. The buffer composition below was used to prepare the working solution of the Mm-CPN protein and ATP substrate. The buffer is comprised of 30 mM TRIS pH 7.4, 100mM KCl, 5mM MgCl2, and 1mM DTT. A final concentration of 25nM Mm-CPN and 10uM ATP per well were used in the screen. Instructions according to the manufacturer were followed for the ADP Transcreener kit. Used 1536 well Greiner white, medium binding (MB), solid bottom plates. Plates were read on the PerkinElmer EnVision plate reader using Excitation = 320 nm and Emission = […], 665 nm. Protocol- 1.Dispense 1.5ul per well of working [Mm-CPN] = 50nM (or 75 ng / well) 2.Spin plate at 1000 rpm for 30 seconds 3.23nl of compound transferred per well 4.Incubate at 37degC for 10 minutes 5.Dispense 1.5ul per well of working [ATP] = 20uM 6.Incubate at 37degC for 30 minutes 7.Dispense 3ul per well of Anti-ADP Cryptate / ADP-d2 mix (prepared as instructed by Cisbio) 8.Incubate at ambient for 30 minutes 9.Read using EnVision
Potency is the fitted concentration of half-maximal effect.

| SMILES | Potency |
| --- | --- |
| CCCCCC1C(=O)C[C@@H]2CCN3C(=O)CCC[C@H]1[C@H]23 (some centres not stated) | inconclusive: 79.4 µM [inhibitor, single point] |
| CC(C)CN(CC(C)C)C(=O)CN1c2cccc3cccc(c23)S1(=O)=O | inconclusive: 100 µM [inhibitor, single point] |
| Cc1cccc(CSc2nc(N)c(C#N)c(-c3cccs3)c2C#N)c1 | inconclusive: 158 µM [inhibitor, partial curve, poor fit] |
| Cc1cccc(C)c1OCC(=O)OC/C(O)=C(\C#N)c1nc2ccccc2[nH]1 | inactive |
| Cc1ccc(-c2nnc(N3CCCCC3)c3ccccc23)cc1 | inconclusive: 70.8 µM [inhibitor, single point] |
| CCN(CC)CCCNC(=S)N1CCN(c2nc3ccccc3n2CC)CC1 | inconclusive: 100 µM [inhibitor, single point] |
| COc1ccc(C2=NN(S(=O)(=O)c3ccccc3)C(c3ccccc3)C2)cc1 (configuration not stated) | inconclusive: 56.2 µM [inhibitor, single point] |
| Cc1ccc(NCc2nnc(SCC(=O)NCc3ccco3)n2CC2CCCO2)c(C)c1 (configuration not stated) | inconclusive: 20 µM [inhibitor, single point] |
| O=C(O)c1sccc1S(=O)(=O)N1CCOCC1 | inactive |
| COc1ccc(SCC(=O)c2cc(C)c(OC(=S)N(C)C)c(C)c2)cc1 | inactive |
| Cc1ccc(C)c(NC(=O)CSc2ccc(-c3cccs3)nn2)c1 | inconclusive: 56.2 µM [inhibitor, single point] |
| COc1ccc(C)cc1S(=O)(=O)N1CCN(c2ccccc2)CC1 | inconclusive: 70.8 µM [inhibitor, single point] |
| CN=c1scc(C)n1/N=C/c1ccc(O)c(O)c1O | inconclusive: 89.1 µM [inhibitor, single point] |
| c1ccc(-c2ccnc3nc(N4CCN(c5ccccc5)CC4)nn23)cc1 | inactive |
| CC(NS(=O)(=O)c1ccccc1)C(=O)NCCc1ccccn1 (configuration not stated) | inconclusive: 22.4 µM [inhibitor, single point] |
| Cc1ccc(Nc2nc(CSc3nnc(-c4ccncc4)n3C)cs2)cc1 | inconclusive: 17.8 µM [inhibitor, single point] |
| CCOC(=O)c1c(C)n(CC)c2c1cc(O)c1ccccc12 | inconclusive: 20 µM [inhibitor, single point] |
| COc1ccc(OC)c(S(=O)(=O)N2CCN(C(=O)NC3CCCCC3)CC2)c1 | inconclusive: 79.4 µM [inhibitor, single point] |
| C=C(C)COc1ccc(-c2nc(N)nc(C)c2-c2ccc(OC)cc2)c(O)c1 | inconclusive: 112 µM [inhibitor, single point] |
| Cc1ccc(C(=O)Nc2cc(C(C)C)c(O)c(C(C)C)c2)cc1 | inconclusive: 20 µM [inhibitor, single point] |
| CCOC(=O)c1ccc(S(=O)(=O)N2CCN(C3CCCC3)CC2)cc1 | inconclusive: 44.7 µM [inhibitor, single point] |
| COc1ccc(CCC(=O)NCC(c2ccco2)N2CCc3ccccc32)cc1 (configuration not stated) | inconclusive: 10 µM [inhibitor, single point] |
| O=C(CN1C(=O)NC2(CCCCC2)C1=O)NCc1ccc2c(c1)OCO2 | inconclusive: 22.4 µM [inhibitor, single point] |

| SMILES | Potency |
| --- | --- |
| O=C(Nc1ccccc1F)Nc1ccc([N+](=O)[O-])cc1Cl | inconclusive: 10 µM [inhibitor, single point] |
| COCc1nnc(NC(=O)CCS(=O)(=O)c2ccccc2)s1 | inconclusive: 100 µM [inhibitor, single point] |
| CCn1c(-c2ccccc2)c[nH]c1=S | inactive |
| O=C(NC1=NCCS1)c1cc(-c2cccc(Br)c2)nc2ccccc12 | inconclusive: 100 µM [inhibitor, single point] |
| CN(C)c1ccc(C(=O)Nc2ccc(S(=O)(=O)Nc3nccs3)cc2)cc1 | inconclusive: 79.4 µM [inhibitor, single point] |
| CCN1C(=O)CSC1=Nc1ccccc1Cl | inactive |
| CN(c1ccccc1)S(=O)(=O)c1cccc(C(=O)OCC(=O)NCc2ccccc2)c1 | inconclusive: 15.8 µM [inhibitor, single point] |
| COc1cccc(C(=O)Nc2c3c(nn2-c2cccc(C)c2C)CS(=O)C3)c1OC (configuration not stated) | inconclusive: 11.2 µM [inhibitor, single point] |
| COc1ccc(-c2c(C#Cc3ccsc3)c3cc(-c4ccc5c(c4)OCO5)ccc3n2C)cc1 | inconclusive: 200 µM [inhibitor, partial curve, poor fit] |
| CN1CCS/C1=C/C=C1\SC(=S)N(CC(=O)O)C1=O | inactive |
| CCc1ccc2c(c1)C(=O)C(=O)N2CC(=O)Nc1ccc(NC(=O)c2ccccn2)cc1 | inconclusive: 50.1 µM [inhibitor, single point] |
| CNC(=S)n1cnc(N)n1 | inconclusive: 355 µM [inhibitor, partial curve, poor fit] |
| CC(C)c1ccc(OC(=O)c2cccc(S(=O)(=O)N3CCN(C)CC3)c2)cc1 | inconclusive: 89.1 µM [inhibitor, single point] |
| COCCNC(=S)Nc1ccccc1[N+](=O)[O-] | inconclusive: 56.2 µM [inhibitor, single point] |
| CCCCC(=O)NNC(=S)NC(=O)CCC | inactive |
| COc1cccc(C(=O)Nc2nnc(Cc3ccc(OC)c(OC)c3)s2)c1 | inactive |
| COc1ccccc1NC(=S)NC12CN3CN(CN(C3)C1)C2 | inconclusive: 50.1 µM [inhibitor, single point] |
| CN1/C(=C/C(=S)NC(=O)C2(C)CC2(Cl)Cl)C(C)(C)c2ccccc21 (configuration not stated) | inactive |
| Cc1cccc(Nc2nnc(SCC(=O)c3ccc(Br)s3)s2)c1C | active: 39.8 µM |
| COC(=O)c1ccc2c(=O)n(CCCCCC(=O)N3CCN(c4ccc(F)cc4)CC3)c(=O)[nH]c2c1 | inconclusive: 10 µM [inhibitor, single point] |
| CC(CN1CCCCC1)OC(=O)c1cc2ccccc2o1 (configuration not stated) | inconclusive: 89.1 µM [inhibitor, single point] |
| CSCCC(NC(=O)C1CCC(C)CC1)C(=O)O (configuration not stated) | inconclusive: 79.4 µM [inhibitor, single point] |
| Cc1cc(-c2csc(NC(=O)c3cccc(S(=O)(=O)N(C)C)c3)n2)c(C)n1-c1ccccc1 | inconclusive: 112 µM [inhibitor, partial curve] |

A draw from above in order of heavy-atom count, high to low:

| SMILES | Potency |
| --- | --- |
| Cc1cccc(Nc2nnc(SCC(=O)c3ccc(Br)s3)s2)c1C | active: 39.8 µM |
| COc1ccccc1NC(=S)NC12CN3CN(CN(C3)C1)C2 | inconclusive: 50.1 µM [inhibitor, single point] |
| COCCNC(=S)Nc1ccccc1[N+](=O)[O-] | inconclusive: 56.2 µM [inhibitor, single point] |

Remaining list, next part:

| SMILES | Potency |
| --- | --- |
| Cc1cccc(NC(=O)CC2NCCNC2=O)c1 (configuration not stated) | inconclusive: 56.2 µM [inhibitor, single point] |
| CC(C)c1nnc(NC(=O)CSc2ncn[nH]2)s1 | inconclusive: 20 µM [inhibitor, single point] |
| O=C(Nc1ccccc1C(F)(F)F)c1cc(-c2ccco2)on1 | inconclusive: 14.1 µM [inhibitor, single point] |
| NC(N)=NS(=O)(=O)c1ccc(NC(=S)NC(=O)/C=C/c2ccc(F)cc2)cc1 | inconclusive: 89.1 µM [inhibitor, single point] |
| O=c1[nH]c(Cc2ccccc2)nc2c1oc1ccccc12 | inconclusive: 35.5 µM [inhibitor, partial curve, poor fit] |
| N#C/C(=C\c1ccc(O)c(O)c1)C(=O)NCc1ccccc1 | inconclusive: 100 µM [inhibitor, single point] |
| S=C(NCc1ccccc1Cl)Nc1ccccc1Cl | inconclusive: 50.1 µM [inhibitor, single point] |
| COc1ccc(CN2C(=O)c3ccccc3C2=O)cc1C(=O)Nc1ccccc1N1CCOCC1 | inactive |
| Cc1ccc(-n2c(SCC(=O)N3CCCc4ccccc43)nnc2-c2cccnc2)c(C)c1 | inconclusive: 50.1 µM [inhibitor, single point] |
| O=c1nc(N2CCOCC2)ccn1-c1nc(-c2ccccc2)sc1-c1ccccc1 | inconclusive: 22.4 µM [inhibitor, single point] |
| O=C(O)CN(c1ccccn1)S(=O)(=O)c1ccccc1 | inactive |
| CCOc1ccc(CCNC(=O)CCCn2c(=O)c3cccn3c3cccnc32)cc1OCC | inactive |
| CC(=O)NS(=O)(=O)c1ccccc1 | inconclusive: 100 µM [inhibitor, single point] |
| COc1ccc(-c2csc3nc(-c4cccnc4)nc(N4CCC(C(N)=O)CC4)c23)cc1OC | inconclusive: 251 µM [inhibitor, partial curve, poor fit] |
| CCc1ccc(CCC(=O)Nc2ccc(S(N)(=O)=O)cc2)o1 | inconclusive: 17.8 µM [inhibitor, single point] |
| COc1ccc(S(=O)(=O)N2CCOCC2)cc1NC(=O)COC(=O)C1CC2CCCC(C1)C2=O (configuration not stated) | inconclusive: 56.2 µM [inhibitor, single point] |
| COc1cc2nc(C3CCC3)n(NC(=O)COc3ccccc3)c(=O)c2cc1OC | inconclusive: 12.6 µM [inhibitor, single point] |
| CC(C)C[C@@H](CC#N)N1CCN(CCc2ccccc2)CCC1=O | inconclusive: 22.4 µM [inhibitor, single point] |
| CCN(CC)CCCNC(=O)CSc1c2c(nc3cc(Cl)ccc13)CCCC2 | inconclusive: 224 µM [inhibitor, partial curve, poor fit] |
| CCCN(CCC)S(=O)(=O)c1ccc(C(=O)N2CCOCC2)cc1 | inconclusive: 100 µM [inhibitor, single point] |
| CCOC(=O)C1=C(C)Nc2ccccc2N=C1NC(=O)c1ccc(Cl)c(S(=O)(=O)N2CCCC2)c1 | inconclusive: 112 µM [inhibitor, single point] |

— PubChem BioAssay AID504842 (National Center for Advancing Translational Sciences (NCATS), 2011)
